Laboratory results: paper PMC4887895
No constants are given. Whether binding was seen depends on the method and setting. Binding seen in cells or lysates may run through a third protein. Some results given as binding are weak or reduced against the parent protein; the word gives no strength. Tags and fused reporters may be left off the sequences shown.

Protein sequences, listed by entry. Tags and fused reporters are not part of them.
UniProt Q9P0L2: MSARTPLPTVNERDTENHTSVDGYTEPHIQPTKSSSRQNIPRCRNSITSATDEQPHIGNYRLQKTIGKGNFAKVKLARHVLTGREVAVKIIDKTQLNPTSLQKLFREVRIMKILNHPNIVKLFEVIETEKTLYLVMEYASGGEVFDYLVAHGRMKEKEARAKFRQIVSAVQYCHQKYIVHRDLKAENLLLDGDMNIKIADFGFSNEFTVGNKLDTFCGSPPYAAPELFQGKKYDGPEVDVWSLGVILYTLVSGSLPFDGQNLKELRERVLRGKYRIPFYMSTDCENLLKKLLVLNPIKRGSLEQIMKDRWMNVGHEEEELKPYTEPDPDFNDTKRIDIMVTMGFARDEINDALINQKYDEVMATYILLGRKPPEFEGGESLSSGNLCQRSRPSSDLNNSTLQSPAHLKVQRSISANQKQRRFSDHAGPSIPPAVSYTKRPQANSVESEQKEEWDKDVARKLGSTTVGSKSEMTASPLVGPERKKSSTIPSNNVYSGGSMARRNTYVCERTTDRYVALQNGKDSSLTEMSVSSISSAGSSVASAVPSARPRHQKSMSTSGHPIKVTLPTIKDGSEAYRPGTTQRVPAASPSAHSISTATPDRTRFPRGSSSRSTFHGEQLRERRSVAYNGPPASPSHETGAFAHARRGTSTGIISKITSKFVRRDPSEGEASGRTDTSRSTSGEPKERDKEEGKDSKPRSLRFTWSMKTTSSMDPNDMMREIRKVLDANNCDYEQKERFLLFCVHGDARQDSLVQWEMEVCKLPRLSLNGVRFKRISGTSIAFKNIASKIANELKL
UniProt Q7KZI7: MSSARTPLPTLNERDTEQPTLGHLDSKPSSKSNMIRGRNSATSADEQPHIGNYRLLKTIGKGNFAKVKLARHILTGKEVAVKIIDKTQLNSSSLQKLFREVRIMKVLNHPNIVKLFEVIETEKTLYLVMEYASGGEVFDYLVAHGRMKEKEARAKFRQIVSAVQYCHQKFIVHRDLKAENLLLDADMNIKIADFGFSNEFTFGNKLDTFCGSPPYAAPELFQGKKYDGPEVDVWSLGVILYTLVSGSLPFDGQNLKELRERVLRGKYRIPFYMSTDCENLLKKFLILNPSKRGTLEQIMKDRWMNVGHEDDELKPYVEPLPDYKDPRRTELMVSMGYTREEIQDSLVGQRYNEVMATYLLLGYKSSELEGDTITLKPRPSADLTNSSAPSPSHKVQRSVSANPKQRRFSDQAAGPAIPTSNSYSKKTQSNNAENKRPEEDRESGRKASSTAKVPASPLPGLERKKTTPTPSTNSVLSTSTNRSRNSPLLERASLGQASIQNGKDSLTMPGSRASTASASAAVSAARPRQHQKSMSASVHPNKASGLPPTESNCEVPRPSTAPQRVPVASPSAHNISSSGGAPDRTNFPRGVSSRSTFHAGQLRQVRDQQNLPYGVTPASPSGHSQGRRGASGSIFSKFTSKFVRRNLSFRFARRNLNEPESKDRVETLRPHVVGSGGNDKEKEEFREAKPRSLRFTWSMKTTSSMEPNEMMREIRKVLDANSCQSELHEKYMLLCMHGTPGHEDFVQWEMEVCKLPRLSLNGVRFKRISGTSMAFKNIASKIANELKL
UniProt P27448: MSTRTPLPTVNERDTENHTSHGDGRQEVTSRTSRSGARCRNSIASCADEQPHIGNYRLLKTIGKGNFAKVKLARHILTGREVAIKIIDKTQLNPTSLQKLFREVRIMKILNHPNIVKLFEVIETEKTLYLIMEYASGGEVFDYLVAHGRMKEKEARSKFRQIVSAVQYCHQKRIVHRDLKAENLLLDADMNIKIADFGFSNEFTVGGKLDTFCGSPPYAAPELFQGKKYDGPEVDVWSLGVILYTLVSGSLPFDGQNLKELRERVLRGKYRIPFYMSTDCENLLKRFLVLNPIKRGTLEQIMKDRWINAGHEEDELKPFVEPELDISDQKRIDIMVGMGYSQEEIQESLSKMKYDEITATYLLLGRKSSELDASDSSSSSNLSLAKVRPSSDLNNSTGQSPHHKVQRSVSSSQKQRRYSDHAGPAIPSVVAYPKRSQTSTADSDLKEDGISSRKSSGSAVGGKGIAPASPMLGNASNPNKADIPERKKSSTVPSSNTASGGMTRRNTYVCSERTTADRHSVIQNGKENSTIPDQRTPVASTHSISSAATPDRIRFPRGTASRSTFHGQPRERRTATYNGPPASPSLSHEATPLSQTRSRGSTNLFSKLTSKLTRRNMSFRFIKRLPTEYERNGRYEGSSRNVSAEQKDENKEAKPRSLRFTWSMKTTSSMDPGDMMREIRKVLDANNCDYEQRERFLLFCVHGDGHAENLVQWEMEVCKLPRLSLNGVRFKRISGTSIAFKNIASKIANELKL

Assays:
Assay in all cases: co-IP; V5-FEZ1 co-expressed with GFP-MARKs in HEK 293 cells; lysis in HNE buffer (150 mM NaCl, 1 mM EDTA, 1% Triton X-100, 50 mM Hepes, pH 7.2); precipitated with anti-GFP antibodies and protein G-Sepharose; immunoblot
[1] = target: GFP-MARK1 (human) (UniProt Q9P0L2)
[2] = target: GFP-MARK2 (human) (UniProt Q7KZI7)
[3] = target: GFP-MARK3 (human) (UniProt P27448)

| binding [1] | binding [2] | binding [3] | Binder |
| --- | --- | --- | --- |
| binds | binds | binds | V5-tagged wild type FEZ1 (protein, UniProt Q99689 1-392) MEAPLVSLDEEFEDLRPSCSEDPEEKPQCFYGSSPHHLEDPSLSELENFSSEIISFKSMEDLVNEFDEKLNVCFRNYNAKTENLAPVKNQLQIQEEEETLQDEEVWDALTDNYIPSLSEDWRDPNIEALNGNCSDTEIHEKEEEEFNEKSENDSGINEEPLLTADQVIEEIEEMMQNSPDPEEEEEVLEEEDGGETSSQADSVLLQEMQALTQTFNNNWSYEGLRHMSGSELTELLDQVEGAIRDFSEELVQQLARRDELEFEKEVKNSFITVLIEVQNKQKEQRELMKKRRKEKGLSLQSSRIEKGNQMPLKRFSMEGISNILQSGIRQTFGSSGTDKQYLNTVIPYEKKASPPSVEDLQMLTNILFAMKEDNEKVPTLLTDYILKVLCPT |
| binds | binds | binds | V5-tagged FEZ1 (S58A) (protein, UniProt Q99689 1-392) MEAPLVSLDEEFEDLRPSCSEDPEEKPQCFYGSSPHHLEDPSLSELENFSSEIISFKAMEDLVNEFDEKLNVCFRNYNAKTENLAPVKNQLQIQEEEETLQDEEVWDALTDNYIPSLSEDWRDPNIEALNGNCSDTEIHEKEEEEFNEKSENDSGINEEPLLTADQVIEEIEEMMQNSPDPEEEEEVLEEEDGGETSSQADSVLLQEMQALTQTFNNNWSYEGLRHMSGSELTELLDQVEGAIRDFSEELVQQLARRDELEFEKEVKNSFITVLIEVQNKQKEQRELMKKRRKEKGLSLQSSRIEKGNQMPLKRFSMEGISNILQSGIRQTFGSSGTDKQYLNTVIPYEKKASPPSVEDLQMLTNILFAMKEDNEKVPTLLTDYILKVLCPT |
